Source: PubChem BioAssay AID504444 (National Center for Advancing Translational Sciences (NCATS), 2011)
Among all 360,000 compounds or so, about 7,500 (2.1%) were called active. The inconclusive results got no clear call from the source; some entries with a clear call stand among them for comparison. The call rests on the fitted dose curve; in most records, active means well fitted inhibition curve with a large enough effect; inconclusive means small, poorly fitted or top-dose-only effect, or effect the other way; inactive means flat fitted curve, though single readings scatter. Potencies of inconclusive entries are doubtful fits and often do not repeat.
Potency means the concentration at half of the fitted maximal effect.

Assay: Nrf2 qHTS screen for inhibitors; further: nearly all actives have a fitted effect of over 60% in size
Settings: A549 ARE-Fluc reporter, luciferase luminescence, 18-24 h; series mostly up to 46 µM
From the text: NIH Molecular Libraries Probe Production Network [MLPCN]
NIH Chemical Genomics Center [NCGC]
Assay Provider: Shyam Biswal, Johns Hopkins University
Nrf2 is a transcription factor that maintains cellular redox homoestasis and protects cells from xenobiotics. Nrf2 binds to the antioxidant response element (ARE) to induce gene expression of a broad spectrum of genes that encode for antioxidants. […] Finding a small molecule that act as an inhibitor of Nrf2 function would represent a novel therapeutic target that could lead to improvement in survival of patients undergoing chemo- and/or radio- therapy.
This is the Nrf2 activity measured in the luminescent read.
1. Shibata, T., et al., Genetic Alteration of Keap1 Confers Constitutive Nrf2 Activation and Resistance to Chemotherapy in Gallbladder Cancer. Gastroenterology, 2008.
2. Sjoblom, T., et al., The consensus coding sequences of human breast and colorectal cancers. Science, 2006. 314(5797): p. 268-74.
NCGC Assay Protocol Summary:
A concentration-response assay was performed with A549 ARE_Fluc cells which are suspended in 5% FBS OPTI-MEM. Five uL were dispensed into 1536-well white TC-treated plate using the Kalypsys dispenser to achieve a density of 5000 cells/well in all columns except column 1. The plate is incubated at 37deg C at 5% CO2 for 2 hours before 23 nL of compounds are added with the Kalypsys pin tool equipped with a 1,536-pin array containing 10-nL slotted pins (FP1S10, 0.457-mm diameter, 50.8 mm long; V&P Scientific). The control compounds Budesonide and Staurosporine are both added at a concentration of 2mM and Budesonide is also added as a 1:10 titration, starting at 200uM, to achieve dose-response. After an 18-24 hour incubation at 37deg C at 5% CO2, 5ul of medium is added to column 1. Afterwards 1ul of 5x of CellTiter-Fluor (Promega) is added to every well. The plate is then incubated at 37deg C at 5% CO2 for 30 minutes before they are read on the ViewLux (Perkin Elmer) for a fluorescent read Ex=405(10)/Em=525(10) for a 3 second exposure, 2x binning, and high gain. Then 3 uL of 3x BugLite is dispensed into all wells and the plate is incubated at ambient room temperature for 15 minutes. Afterwards another ViewLux read is performed using the clear filter to get a luminescent read with the settings of 40 second exposure, 2x binning, and high gain. Cytotoxicity is assessed through the first fluorescent read and then biochemical activity against Nrf2 is measured in the luminescent read.
With `COc1cccc(NC(=O)C2CC(=O)N(C)C(=Nc3cccc(F)c3)S2)c1` (centres undefined) the Potency was inconclusive: 23.1 µM [falling, partial curve, poor fit]. For `Cc1ccc2nc(Nc3ccccc3)cc(C)c2c1`, the Potency was inconclusive: 2.59 µM [activator, partial curve, poor fit]. In the case of `CC(=O)NCCC(=O)Nc1nc2ccc(Oc3ccccc3)cc2s1`, the Potency is reported as inconclusive: 8.2 µM [activator, partial curve]. With `COc1cc(C2C(C(=O)OC(C)C)=C(C)N=C3SCCC(=O)N32)ccc1OCc1ccccc1` (centres undefined) the Potency was inconclusive: 20.6 µM [falling, single point]. For `C/C(=N\NC(=S)NC(C)C)c1ccccc1`, the Potency was “inactive”. In the case of `Cc1cccc(OCCn2c(-c3ccco3)nc3ccccc32)c1`, the Potency is reported as inconclusive: 23.1 µM [falling, partial curve, poor fit]. In the case of `Cc1nn(CCCC(=O)Nc2sc3c(c2C#N)CCC3)c(C)c1[N+](=O)[O-]`, the Potency is reported as inconclusive: 4.11 µM [falling, partial curve, poor fit]. For `COc1cccc(NC(=O)N(Cc2cn(C)c3ccccc23)C2CCCCC2)c1`, the Potency was active: 3.26 µM. With `CCN(CC)C(=O)CSc1nc2c(sc(=S)n2-c2ccccc2)c(=O)n1-c1ccc(OC)cc1OC` the Potency was inconclusive: 29.1 µM [falling, single point]. With `O=[N+]([O-])c1ccc(CN2CCOCCOCCN(Cc3ccc([N+](=O)[O-])cc3)CCOCC2)cc1` the Potency was inconclusive: 23.1 µM [falling, single point]. With `COc1ccccc1OCCNC(=O)CNC(=O)c1ccc(C(C)(C)C)cc1` the Potency was inconclusive: 29.1 µM [falling, single point]. With `CCCOc1ccc(C(=O)CCCC(=O)c2ccc(OCCC)cc2)cc1` the Potency was inconclusive: 29.1 µM [falling, partial curve, poor fit]. With `CSc1ccc(/C=N/Nc2cccc(C(=O)O)c2)cc1` the Potency was inconclusive: 20.6 µM [activator, partial curve]. For `O=C(N/N=C1\CCCc2c1[nH]c1ccc(Cl)cc21)c1ccncc1`, the Potency was inconclusive: 29.1 µM [falling, single point]. With `O=C(Nc1ccc2oc(-c3ccncc3)nc2c1)c1c(F)c(F)c(F)c(F)c1F` the Potency was inconclusive: 5.8 µM [falling, partial curve, poor fit]. In the case of `NCC(O)(c1ccc(Cl)cc1)c1ccc(Cl)cc1`, the Potency is reported as inconclusive: 18.4 µM [falling, single point]. For `COc1ccc(C2NN=C(c3ccc(C)cc3)S2)cc1OC` (centres undefined), the Potency was inconclusive: 10.3 µM [activator, partial curve]. In the case of `Cc1ccn2c(=O)c(C(=O)NCCc3ccc(S(N)(=O)=O)cc3)c(O)nc2c1`, the Potency is reported as “inactive”. For `Cc1ccc(-n2nc3ccc(NC(=O)C(C)C)cc3n2)cc1`, the Potency was inconclusive: 10.3 µM [activator, partial curve]. With `CN(Cc1ccccc1)C(=O)COC(=O)/C=C/c1ccco1` the Potency was “inactive”. For `CSc1ccc(/C=C/c2ccc3cccc(O)c3n2)cc1`, the Potency was inconclusive: 23.1 µM [activator, single point]. For `COc1ccc(CN2C(=O)NC3(CCOc4ccccc43)C2=O)cc1F` (centres undefined), the Potency was inconclusive: 32.6 µM [falling, single point]. In the case of `CCC(C)NC(C(=O)Nc1ccc(Cl)c([N+](=O)[O-])c1)c1ccccc1` (centres undefined), the Potency is reported as “inactive”. For `Cc1ccc(-c2cc(C(F)(F)F)n3nc(C(=O)Nc4sc5c(c4C#N)CCC(C)C5)cc3n2)cc1` (centres undefined), the Potency was “inactive”. For `O=C(Nc1cc2cccc([N+](=O)[O-])c2oc1=O)c1cccs1`, the Potency was inconclusive: 6.51 µM [activator, single point]. With `CC(CNC(=O)c1ccc(CSc2nc3ccncc3n2Cc2cccc(F)c2)cc1)c1ccccc1` (centres undefined) the Potency was inconclusive: 29.1 µM [falling, single point]. In the case of `Cc1ccc(C)c(-c2nn(CC(=O)Nc3cc(F)ccc3F)c(=O)c3c2CCCC3)c1`, the Potency is reported as inconclusive: 29.1 µM [falling, single point]. In the case of `COc1cc(C(=O)Nc2ccc(Cl)c(-c3nc4ncccc4o3)c2)cc(OC)c1OC`, the Potency is reported as inconclusive: 3.66 µM [falling, partial curve]. In the case of `O=C1Nc2cc(C(=O)NCCCN3CCCC3)ccc2S/C1=C\c1ccccc1`, the Potency is reported as “inactive”. In the case of `Cc1ccc(-c2nc3sc4c(c3c(=O)n2N)CCCC4)cc1`, the Potency is reported as inconclusive: 2.31 µM [activator, partial curve]. For `CCc1ccccc1NC(=O)Cn1cccc1C1=NC(c2ccccc2)CO1` (centres undefined), the Potency was “inactive”. For `O=C(NCc1csc2ccc(Cl)cc12)Nc1ccccc1`, the Potency was inconclusive: 5.17 µM [falling, full curve]. For `COc1ccc(CCNC(=O)c2cccc(-n3cnnn3)c2)cc1`, the Potency was “inactive”. With `Cc1cccc2c1-c1sc(C(=O)N3CCN(c4ccc(F)cc4)CC3)cc1CO2` the Potency was “inactive”. In the case of `Cc1cc(N2CCCCC2)nc(SCc2ccc(C#N)cc2)n1`, the Potency is reported as inconclusive: 16.4 µM [falling, single point]. In the case of `Cc1ccc(-n2ncc3c2CCCC3NC(=O)CSc2ccccn2)cc1C` (centres undefined), the Potency is reported as inconclusive: 25.9 µM [falling, partial curve, poor fit]. In the case of `CC(=O)Nc1ccc(C(=O)N2CCCC2)cc1`, the Potency is reported as “inactive”. In the case of `CC(C)(C)c1cc(C(=O)N/N=C/c2ccccc2O)n(-c2ccccc2)n1`, the Potency is reported as inconclusive: 16.4 µM [falling, single point]. For `Cc1nc2sc(C(c3ccc(F)cc3)N3CCN(C(=O)c4ccco4)CC3)c(O)n2n1` (centres undefined), the Potency was inconclusive: 10.3 µM [falling, partial curve, poor fit]. For `O=C(NCc1ccccc1)C1=C[C@H](c2ccccc2)C[C@H](OCc2ccc(CO)cc2)O1`, the Potency was inconclusive: 29.1 µM [falling, single point]. For `COc1ccc(C(=O)N/N=C/c2ccc(OC)c(OS(=O)(=O)c3ccccc3)c2)cc1`, the Potency was inconclusive: 29.1 µM [falling, single point]. In the case of `Cc1nc2ccn(Cc3cccnc3)c(=O)c2cc1C(=O)NCc1ccc(Cl)cc1`, the Potency is reported as inconclusive: 2.59 µM [falling, partial curve, poor fit]. With `Cc1nn(C)c(Oc2ccccc2)c1CCNS(=O)(=O)c1ccc(F)cc1` the Potency was inconclusive: 29.1 µM [falling, partial curve, poor fit]. For `COc1ccc(N2CC(C(=O)Nc3cc(C(F)(F)F)ccc3N3CCCC3)CC2=O)c(OC)c1` (centres undefined), the Potency was “inactive”. For `CCC(=O)N1CCc2cc(S(=O)(=O)NCCC(=O)NC3CCCc4ccccc43)ccc21` (centres undefined), the Potency was inconclusive: 11.6 µM [falling, partial curve, poor fit]. In the case of `COc1ccc(Cc2nnc(N/N=C/c3ccc(O)cc3)[nH]c2=O)cc1OC`, the Potency is reported as inconclusive: 16.4 µM [falling, partial curve, poor fit]. With `Cc1cc(NC(=O)CSc2ncc(C(F)(F)F)cc2Cl)no1` the Potency was inconclusive: 0.0461 µM [falling, full curve, poor fit]. In the case of `Cc1ccc(NC(=O)CN2C(=O)N/C(=C\c3cccnc3)C2=O)cc1`, the Potency is reported as inconclusive: 32.6 µM [falling, single point]. With `O=C(CCS(=O)(=O)c1cccc2nonc12)N1CCN(c2ccc(F)cc2)CC1` the Potency was inconclusive: 0.411 µM [falling, full curve, poor fit]. For `Cc1cccc(NC(=O)c2cc([N+](=O)[O-])ccc2N2CCCCC2)n1`, the Potency was inconclusive: 20.6 µM [falling, single point]. With `CCOC(=O)/C=C(\C)Sc1cc(=O)oc2ccccc12` the Potency was inconclusive: 16.4 µM [falling, partial curve, poor fit]. In the case of `Cc1cc(N2CCN(C)CC2)nc2ccc(NC(=O)Nc3ccc(Cl)cc3)cc12`, the Potency is reported as inconclusive: 18.4 µM [activator, single point]. For `COc1ccc(C(=O)OCC(=O)Nc2ccc(Cl)c(C(F)(F)F)c2)c(OC)c1OC`, the Potency was inconclusive: 23.1 µM [falling, partial curve, poor fit]. With `Nc1oc2ccccc2c(=O)c1-c1ccc2c(c1)OCO2` the Potency was inconclusive: 7.31 µM [activator, partial curve]. With `Nn1cnnc1SCC(=O)Nc1ccc(C2CCCCC2)cc1` the Potency was “inactive”. In the case of `CCc1ccccc1N(C)C(=O)Nc1cn(CC(C)C)c(=O)c2ccccc12`, the Potency is reported as inconclusive: 7.31 µM [activator, partial curve]. In the case of `C=Cc1ccc(CSc2nc(-c3ccccc3C)nc3c2Cc2c(CO)cnc(C)c2O3)cc1`, the Potency is reported as “inactive”. For `Cc1ccc(S(=O)(=O)N2CCCCC2C(=O)Nc2ccc(N(C)C)cc2)cc1` (centres undefined), the Potency was “inactive”. With `COc1ccc(C(=O)c2ccc3oc(-c4ccc(OC)cc4)c(C#CCCO)c3c2)cc1` the Potency was inconclusive: 29.1 µM [falling, single point]. For `CCn1c(SCC(=O)Nc2ccc(NC(=O)c3ccco3)cc2)nnc1-c1cccs1`, the Potency was inconclusive: 16.4 µM [falling, single point]. For `CN(C(=O)c1ccco1)c1nc(CC(=O)Nc2ccccc2)cs1`, the Potency was inconclusive: 10.3 µM [activator, partial curve, poor fit]. With `COC(=O)/C(C#N)=C/c1c(-c2ccccc2)nc2n1CCS2` the Potency was inconclusive: 23.1 µM [activator, partial curve]. With `CC(C)c1ccc(-c2cc(C(=O)NN3CCN(C)CC3)c3ccccc3n2)cc1` the Potency was inconclusive: 0.731 µM [activator, partial curve, poor fit]. With `Cc1c(-c2ccn[nH]2)cc(NC(=O)c2ccc(Cl)cc2)c(=O)n1N` the Potency was inconclusive: 29.1 µM [activator, single point].
